Reference: PubChem BioAssay AID504444 (National Center for Advancing Translational Sciences (NCATS), 2011)
Hit rate of the full screen: of about 360,000 compounds, about 7,500 (2.1%) were called active. This list was built around the results that the source calls inconclusive (neither active nor inactive); the mix of calls is not that of the screen. Calls come from the whole dose curve; as a rule, active = well fitted inhibition curve with a large enough effect; inconclusive = small, poorly fitted or top-dose-only effect, or effect the other way; inactive = flat fitted curve, though single readings scatter. Potencies of inconclusive entries are doubtful fits and often do not repeat.

assay: Nrf2 qHTS screen for inhibitors; settings: A549 ARE-Fluc reporter, luciferase luminescence, 18-24 h; activity change, negative = inhibition: at 46 µM (top of the series); note: nearly all actives have a fitted effect of over 60% in size
In short: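 Cells were seeded and rested 2 h, then exposed to compounds for 18-24 h. CellTiter-Fluor was read first as a viability measure. BugLite was added 15 min before the final luminescent read of ARE-luciferase activity in A549 cells.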
% is set by controls: 0 for no effect and ±100 for the full control effect; potency is the fitted concentration of half-maximal effect.

Row | Compound | activity change, negative = inhibition | Potency
1 | O=C(CN1CCN(CCN2C(=O)c3cccc4cccc(c34)C2=O)CC1)c1ccc(F)cc1 | inactive: -16.9% | 
2 | CCOc1cc(N2CCOCC2)c(OCC)cc1NC(=O)c1ccc(OC)cc1 | inactive: -13.9% | 
3 | CCCOc1ccc(-c2nc(N3CCN(C)CC3)c3ccccc3n2)cc1 |  | inconclusive: 11.6 µM [activator, partial curve]
4 | O=C(CCCCCn1c(=O)[nH]c2ccccc2c1=O)NCCCN1CCN(c2ccccc2F)CC1 |  | inconclusive: 29.1 µM [falling, single point]
5 | CN1CC[C@]2(CCN3CCc4c(oc5ccccc45)[C@@H]3C2)N(C)C1=O |  | inconclusive: 25.9 µM [falling, partial curve, poor fit]
6 | CCOC(=O)CN(Cc1ccccc1)C(C(=O)NC1CCCCC1)c1ccccc1 (stereo not given) |  | active: 4.61 µM
7 | COc1ccc(NS(=O)(=O)c2ccc(N3CCCC3)c(N)c2)cc1 |  | inconclusive: 20.6 µM [falling, single point]
8 | CCCN(CCC)C(=O)CC(c1ccccc1)c1cc(Br)ccc1O (stereo not given) |  | active: 16.4 µM
9 | COc1ccc(Cc2nnc(NC(=O)CSc3ccccc3)s2)cc1OC |  | inconclusive: 25.9 µM [falling, partial curve, poor fit]
10 | CCn1cc(C(=O)NCC(OC)OC)c(=O)c2cc(S(=O)(=O)N3CCC(C)CC3)ccc21 |  | inconclusive: 2.31 µM [falling, single point]
11 | Cc1ccc(Nc2cc(C)nc3ccccc23)c(C)c1 |  | inconclusive: 20.6 µM [falling, single point]
12 | COC(=O)c1[nH]c2c(c1C)C(=O)CC(c1cc(OC)c(OC)c(OC)c1)C2 (stereo not given) |  | active: 9.2 µM
13 | CC(NC(=O)COC(=O)c1nc(Cl)ccc1Cl)c1ccccc1 (stereo not given) |  | inconclusive: 4.11 µM [falling, partial curve, poor fit]
14 | Cc1cc(C)n(-c2nc(NCC(C)O)c3c4c(sc3n2)COC(C)(C)C4)n1 (stereo not given) | inactive: -13% | 
15 | CCN(/N=C/c1ccc(N(C)C)cc1)c1nc2ccccc2[nH]1 |  | inconclusive: 32.6 µM [falling, single point]
16 | Cc1ccc(C(=O)C[n+]2cc(Br)cc(Br)c2)cc1[N+](=O)[O-] | inactive: 14.7% | 
17 | Cc1cccc(N=Nc2cnc(N)s2)c1 |  | inconclusive: 3.66 µM [activator, full curve]
18 | Cc1oc2c(O)c(O)ccc2c(=O)c1-c1cnn(-c2ccccc2)c1 |  | inconclusive: 11.6 µM [falling, partial curve]
19 | CN(C)CCCCOc1ccc(Br)cc1Cl | inactive: 6.97% | 
20 | O=[N+]([O-])c1cc2c(cc1CN1CCN(c3ccccc3)CC1)OCO2 |  | inconclusive: 9.2 µM [activator, partial curve]

A second format for 2 compounds above.
Row	Compound	activity change, negative = inhibition	Potency
6	CCOC(=O)CN(Cc1ccccc1)C(C(=O)NC1CCCCC1)c1ccccc1 (stereo not given)		active: 4.61 µM
7	COc1ccc(NS(=O)(=O)c2ccc(N3CCCC3)c(N)c2)cc1		inconclusive: 20.6 µM [falling, single point]
